# Test results published in the supplement of paper PMC10032668.
# By UniProt entry, the sequences of proteins in these tests, tags left out.
# CALR, P27797, UniProt P27797, whole entry: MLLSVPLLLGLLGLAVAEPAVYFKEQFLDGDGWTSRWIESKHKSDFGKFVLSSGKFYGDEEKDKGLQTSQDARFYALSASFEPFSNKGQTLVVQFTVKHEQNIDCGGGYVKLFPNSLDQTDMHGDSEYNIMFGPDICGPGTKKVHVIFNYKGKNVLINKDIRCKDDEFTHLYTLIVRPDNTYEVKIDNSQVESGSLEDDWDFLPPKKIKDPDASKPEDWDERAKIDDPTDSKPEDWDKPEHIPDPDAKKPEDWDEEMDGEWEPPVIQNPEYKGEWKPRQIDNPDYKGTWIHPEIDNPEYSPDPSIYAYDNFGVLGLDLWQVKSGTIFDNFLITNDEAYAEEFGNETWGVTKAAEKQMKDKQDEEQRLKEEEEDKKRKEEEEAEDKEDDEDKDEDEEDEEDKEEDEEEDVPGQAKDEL
# IGF2BP3, O00425, UniProt O00425, whole entry: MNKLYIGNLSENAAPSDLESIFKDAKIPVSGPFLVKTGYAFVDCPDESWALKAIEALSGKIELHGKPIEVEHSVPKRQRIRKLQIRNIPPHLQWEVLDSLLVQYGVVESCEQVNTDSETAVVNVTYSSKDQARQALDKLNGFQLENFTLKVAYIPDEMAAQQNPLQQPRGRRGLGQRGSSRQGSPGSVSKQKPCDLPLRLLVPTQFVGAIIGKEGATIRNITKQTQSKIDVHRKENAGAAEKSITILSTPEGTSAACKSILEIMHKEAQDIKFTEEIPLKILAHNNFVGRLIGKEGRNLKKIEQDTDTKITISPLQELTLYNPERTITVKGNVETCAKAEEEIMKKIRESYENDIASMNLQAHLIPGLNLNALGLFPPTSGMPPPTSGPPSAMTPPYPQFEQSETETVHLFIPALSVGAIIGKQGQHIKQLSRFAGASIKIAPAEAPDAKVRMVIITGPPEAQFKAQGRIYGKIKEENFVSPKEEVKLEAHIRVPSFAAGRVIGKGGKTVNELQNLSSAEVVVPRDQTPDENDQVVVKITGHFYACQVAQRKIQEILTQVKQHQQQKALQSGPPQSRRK
# The other results are listed elsewhere or left out. Only hits are listed; about a third recur on repeated control peptides.
# Legend:
# Experiment in all cases: PRISMA enrichment of interactor (LFQ) in peptide spot vs all other peptide spots (log2 fold change); higher = stronger / more specific binding of the interactor to the peptide
# BRIX1, Q8TDN6 = target: BRIX1, Q8TDN6
# Experimental: (§1)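 PRISMA: 15-aa overlapping tiles (offset 8 aa) of 60 microproteins, plus SOS1/GLUT1 control peptides, were spot-synthesized on cellulose membranes in triplicate. Membranes were incubated with benzonase-treated HEK293T lysate, and bound proteins were identified by LC-MS/MS with LFQ. Enrichment is the log2 fold change of each protein in one spot versus all other spots. Only interactors passing the significance cutoff are listed.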
# CALR, P27797 = target: CALR, P27797
# Experimental: as §1
# CFAP20, Q9Y6A4 = target: CFAP20, Q9Y6A4
# Experimental: as §1
# CHAMP1, Q96JM3 = target: CHAMP1, Q96JM3
# Experimental: as §1
# CNOT8, Q9UFF9 = target: CNOT8, Q9UFF9
# Experimental: as §1
# COPS2, P61201 = target: COPS2, P61201
# Experimental: as §1
# CPSF2, Q9P2I0 = target: CPSF2, Q9P2I0
# Experimental: as §1
# DDB1, Q16531 = target: DDB1, Q16531
# Experimental: as §1
# EBNA1BP2, Q99848 = target: EBNA1BP2, Q99848
# Experimental: as §1
# FAR1, Q8WVX9 = target: FAR1, Q8WVX9
# Experimental: as §1
# GLUD1, P00367 = target: GLUD1, P00367
# Experimental: as §1
# HCFC1, P51610 = target: HCFC1, P51610
# Experimental: as §1
# HDAC1, Q13547 = target: HDAC1, Q13547
# Experimental: as §1
# IGF2BP1, Q9NZI8 = target: IGF2BP1, Q9NZI8
# Experimental: as §1
# IGF2BP3, O00425 = target: IGF2BP3, O00425
# Experimental: as §1
# LAS1L, Q9Y4W2 = target: LAS1L, Q9Y4W2
# Experimental: as §1
# MRPL21, Q7Z2W9 = target: MRPL21, Q7Z2W9
# Experimental: as §1
# MRPL37, Q9BZE1 = target: MRPL37, Q9BZE1
# Experimental: as §1
# MRPS2, Q9Y399 = target: MRPS2, Q9Y399
# Experimental: as §1
# MT-ATP6, P00846 = target: MT-ATP6, P00846
# Experimental: as §1
# NEK7, Q8TDX7 = target: NEK7, Q8TDX7
# Experimental: as §1
# NOC3L, Q8WTT2 = target: NOC3L, Q8WTT2
# Experimental: as §1
# NSFL1C, Q9UNZ2 = target: NSFL1C, Q9UNZ2
# Experimental: as §1
# PCBP1, Q15365 = target: PCBP1, Q15365
# Experimental: as §1
# PES1, O00541 = target: PES1, O00541
# Experimental: as §1
# PSMD14, O00487 = target: PSMD14, O00487
# Experimental: as §1
# REXO4, Q9GZR2 = target: REXO4, Q9GZR2
# Experimental: as §1
# TIMM8B, Q9Y5J9 = target: TIMM8B, Q9Y5J9
# Experimental: as §1
# BSG, P35613 = target: BSG, P35613
# Experimental: as §1
# FMR1, Q06787 = target: FMR1, Q06787
# Experimental: as §1
# GET4, Q7L5D6 = target: GET4, Q7L5D6
# Experimental: as §1
# MRPS34, P82930 = target: MRPS34, P82930
# Experimental: as §1
# MUC19, Q7Z5P9 = target: MUC19, Q7Z5P9
# Experimental: as §1
# NDUFA9, Q16795 = target: NDUFA9, Q16795
# Experimental: as §1
# NECAP2, Q9NVZ3 = target: NECAP2, Q9NVZ3
# Experimental: as §1
# PTGES3, Q15185 = target: PTGES3, Q15185
# Experimental: as §1
# SFXN2, Q96NB2 = target: SFXN2, Q96NB2
# Experimental: as §1
# SHROOM3, Q8TF72 = target: SHROOM3, Q8TF72
# Experimental: as §1
# SURF2, Q15527 = target: SURF2, Q15527
# Experimental: as §1
# TOMM6, Q96B49 = target: TOMM6, Q96B49
# Experimental: as §1
# TUBAL3, A6NHL2 = target: TUBAL3, A6NHL2
# Experimental: as §1
# ZMAT2, Q96NC0 = target: ZMAT2, Q96NC0
# Experimental: as §1
binder,measurement,setting,value
SPILLSLPSPVIHKM [RP11-12K22.1],PRISMA enrichment of interactor (log2),"BRIX1, Q8TDN6",10
same,PRISMA enrichment of interactor (log2),"CALR, P27797",6.36
same,PRISMA enrichment of interactor (log2),"CFAP20, Q9Y6A4",6.03
same,PRISMA enrichment of interactor (log2),"CHAMP1, Q96JM3",4.46
same,PRISMA enrichment of interactor (log2),"CNOT8, Q9UFF9",7.92
same,PRISMA enrichment of interactor (log2),"COPS2, P61201",4.75
same,PRISMA enrichment of interactor (log2),"CPSF2, Q9P2I0",5.18
same,PRISMA enrichment of interactor (log2),"DDB1, Q16531",7.18
same,PRISMA enrichment of interactor (log2),"EBNA1BP2, Q99848",5.39
same,PRISMA enrichment of interactor (log2),"FAR1, Q8WVX9",5.22
same,PRISMA enrichment of interactor (log2),"GLUD1, P00367",4.53
same,PRISMA enrichment of interactor (log2),"HCFC1, P51610",5.48
same,PRISMA enrichment of interactor (log2),"HDAC1, Q13547",4.6
same,PRISMA enrichment of interactor (log2),"IGF2BP1, Q9NZI8",4.64
same,PRISMA enrichment of interactor (log2),"IGF2BP3, O00425",8.81
same,PRISMA enrichment of interactor (log2),"LAS1L, Q9Y4W2",4.77
same,PRISMA enrichment of interactor (log2),"MRPL21, Q7Z2W9",4.81
same,PRISMA enrichment of interactor (log2),"MRPL37, Q9BZE1",4.43
same,PRISMA enrichment of interactor (log2),"MRPS2, Q9Y399",5.42
same,PRISMA enrichment of interactor (log2),"MT-ATP6, P00846",6.83
same,PRISMA enrichment of interactor (log2),"NEK7, Q8TDX7",5.23
same,PRISMA enrichment of interactor (log2),"NOC3L, Q8WTT2",5.09
same,PRISMA enrichment of interactor (log2),"NSFL1C, Q9UNZ2",5.4
same,PRISMA enrichment of interactor (log2),"PCBP1, Q15365",5.19
same,PRISMA enrichment of interactor (log2),"PES1, O00541",6.21
same,PRISMA enrichment of interactor (log2),"PSMD14, O00487",8.07
same,PRISMA enrichment of interactor (log2),"REXO4, Q9GZR2",5.08
same,PRISMA enrichment of interactor (log2),"TIMM8B, Q9Y5J9",6.02
GIWSSGVDMLPNGAV [LINC01560],PRISMA enrichment of interactor (log2),"BSG, P35613",5
same,PRISMA enrichment of interactor (log2),"FMR1, Q06787",6.39
same,PRISMA enrichment of interactor (log2),"GET4, Q7L5D6",4.16
same,PRISMA enrichment of interactor (log2),"MRPS34, P82930",4.51
same,PRISMA enrichment of interactor (log2),"MUC19, Q7Z5P9",8.32
same,PRISMA enrichment of interactor (log2),"NDUFA9, Q16795",6.34
same,PRISMA enrichment of interactor (log2),"NECAP2, Q9NVZ3",4.22
same,PRISMA enrichment of interactor (log2),"PTGES3, Q15185",6.8
same,PRISMA enrichment of interactor (log2),"SFXN2, Q96NB2",4.3
same,PRISMA enrichment of interactor (log2),"SHROOM3, Q8TF72",9.48
same,PRISMA enrichment of interactor (log2),"SURF2, Q15527",3.76
same,PRISMA enrichment of interactor (log2),"TOMM6, Q96B49",4.35
same,PRISMA enrichment of interactor (log2),"TUBAL3, A6NHL2",4.01
same,PRISMA enrichment of interactor (log2),"ZMAT2, Q96NC0",4.64

# 2 successive entries already listed, quoted:
binder,measurement,setting,value
SPILLSLPSPVIHKM [RP11-12K22.1],PRISMA enrichment of interactor (log2),"PCBP1, Q15365",5.19
same,PRISMA enrichment of interactor (log2),"PES1, O00541",6.21
